Laboratory results reported in patent publication US11497737B2, “Pharmaceutical compositions of albumin and rapamycin” (Abraxis BioScience, LLC, priority 2019, dated 2022).
At least one structure is not confirmed: it was looked up by name or label, or the drawing left a doubt.

Assays:
[1] = DLS analysis of in vitro release study samples; type: physicochemical
[2] = Drug release by stable isotope tracer ultrafiltration assay (SITUA); type: physicochemical; details: 4.5% human serum albumin, 10 minutes, 29° C.
[3] = 5 μg/mL rapamycin, in HSA, 30 minutes
[4] = 10 μg/mL rapamycin, in HSA, 30 minutes
[5] = 100 μg/mL rapamycin, in HSA, 30 minutes
[6] = 500 μg/mL rapamycin, in HSA, 30 minutes

For `CO[C@H]1C[C@@H]2CC[C@@H](C)[C@@](O)(O2)C(=O)C(=O)N2CCCC[C@H]2C(=O)O[C@H]([C@H](C)C[C@@H]2CC[C@@H](O)[C@H](OC)C2)CC(=O)[C@H](C)/C=C(\C)[C@@H](O)[C@@H](OC)C(=O)[C@H](C)C[C@H](C)/C=C/C=C/C=C/1C` [rapamycin], the “DLS size, 5-15 nm population” value [1, 3] was 7.7 ± 0.01 nm, the “DLS size, 60-170 nm population” value [1, 3] was 76.3 ± 0.8 nm and the “Integrated intensity, 5-15 nm population” value [1, 3] was “(53.0 ± 0.2)”. The “Integrated intensity, 60-170 nm population” value [1, 3] was “(47.0 ± 0.2)”, the “DLS size, 60-170 nm population” value ([1]; 5 μg/mL rapamycin, in saline) was 115 ± 9 nm and the “DLS size, >1000 nm population” value ([1]; 5 μg/mL rapamycin, in saline) was 4438 ± 751 nm. The “Integrated intensity, 60-170 nm population” value ([1]; 5 μg/mL rapamycin, in saline) was “(97 ± 3)”, the “Integrated intensity, >1000 nm population” value ([1]; 5 μg/mL rapamycin, in saline) was “(5 ± 2)” and the “DLS size, 5-15 nm population” value [1, 4] was 7.0 ± 0.03 nm. For the same compound, the “DLS size, 60-170 nm population” value [1, 4] was 69 ± 1 nm, the “Integrated intensity, 5-15 nm population” value [1, 4] was “(51.9 ± 0.06)” and the “Integrated intensity, 60-170 nm population” value [1, 4] was “(48.1 ± 0.06)”. The “DLS size, 200-500 nm population” value ([1]; 10 μg/mL rapamycin, in saline) was 214 ± 22 nm, the “DLS size, >1000 nm population” value ([1]; 10 μg/mL rapamycin, in saline) was 2905 ± 2516 nm and the “Integrated intensity, 200-500 nm population” value ([1]; 10 μg/mL rapamycin, in saline) was “(95 ± 7)”. For the same compound, the “Integrated intensity, >1000 nm population” value ([1]; 10 μg/mL rapamycin, in saline) was “(5 ± 7)”, the “visual inspection and DLS analysis” value ([1]; 100 μg/mL and 500 μg/mL rapamycin in solvent and 4.5% human serum albumin) was “precipitated immediately” and the “DLS size, 5-15 nm population” value [1, 5] was 8.5 ± 0.1 nm. The “DLS size, 60-170 nm population” value [1, 5] was 166 ± 4 nm, the “Integrated intensity, 5-15 nm population” value [1, 5] was “(27.9 ± 0.9)” and the “Integrated intensity, 60-170 nm population” value [1, 5] was “(66 ± 1)”. The “DLS size, >1000 nm population” value ([1]; 100 μg/mL rapamycin, in saline) was 1378 ± 106 nm, the “Integrated intensity, >1000 nm population” value ([1]; 100 μg/mL rapamycin, in saline) was “(100 ± 0)” and the “DLS size, 200-500 nm population” value [1, 6] was 471 ± 19 nm. The “DLS size, >1000 nm population” value [1, 6] was 4867 ± 127 nm, the “Integrated intensity, 200-500 nm population” value [1, 6] was “(95 ± 1)” and the “Integrated intensity, >1000 nm population” value [1, 6] was “(5 ± 1)”. For the same compound, the “DLS size, >1000 nm population” value ([1]; 500 μg/mL rapamycin, in saline) was 4346 ± 137 nm, the “Integrated intensity, >1000 nm population” value ([1]; 500 μg/mL rapamycin, in saline) was “(100 ± 0)” and the “Avg. Release” value ([2]; 10 μg/ml rapamycin) was 97.2%. For the same compound, the “Avg. Release” value ([2]; 500 μg/ml rapamycin) was 18.3%.
